Experimental data reported in publication PMC2034086.
No constants are given. Whether binding was seen depends on the method and setting. In cells and extracts the contact can be indirect. Binding can be weak; no strength is given.

Target: E-cadherin (human (endogenous in MCF-7/6))
Experiment: co-IP; endogenous proteins in total lysates of MCF-7/6 cells metabolically labelled with Tran35S (cells treated for 2 h with 1 uM RA, with solvent, or untreated); precipitated with HECD-1 (anti-E-cadherin) or immune serum 1522 (anti-beta-catenin) and protein G sepharose; washed three times with lysis buffer; SDS-PAGE (6%) and fluorography

binding: binds
B1: gamma-catenin (protein, UniProt P14923 1-745)
chain: MEVMNLMEQPIKVTEWQQTYTYDSGIHSGANTCVPSVSSKGIMEEDEACGRQYTLKKTTTYTQGVPPSQGDLEYQMSTTARAKRVREAMCPGVSGEDSSLLLATQVEGQATNLQRLAEPSQLLKSAIVHLINYQDDAELATRALPELTKLLNDEDPVVVTKAAMIVNQLSKKEASRRALMGSPQLVAAVVRTMQNTSDLDTARCTTSILHNLSHHREGLLAIFKSGGIPALVRMLSSPVESVLFYAITTLHNLLLYQEGAKMAVRLADGLQKMVPLLNKNNPKFLAITTDCLQLLAYGNQESKLIILANGGPQALVQIMRNYSYEKLLWTTSRVLKVLSVCPSNKPAIVEAGGMQALGKHLTSNSPRLVQNCLWTLRNLSDVATKQEGLESVLKILVNQLSVDDVNVLTCATGTLSNLTCNNSKNKTLVTQNSGVEALIHAILRAGDKDDITEPAVCALRHLTSRHPEAEMAQNSVRLNYGIPAIVKLLNQPNQWPLVKATIGLIRNLALCPANHAPLQEAAVIPRLVQLLVKAHQDAQRHVAAGTQQPYTDGVRMEEIVEGCTGALHILARDPMNRMEIFRLNTIPLFVQLLYSSVENIQRVAAGVLCELAQDKEAADAIDAEGASAPLMELLHSRNEGTATYAAAVLFRISEDKNPDYRKRVSVELTNSLFKHDPAAWEAAQSMIPINEPYGDDMDATYRPMYSSDVPLDPLEMHMDMDGDYPIDTYSDGLRPPYPTADHMLA
